Experimental data from the supplement of paper PMC10849652.
This is one part of the list.

Protein sequences, listed by entry. Tags and fused reporters are not part of them. Lines headed by an entry give the natural chain unless they say otherwise; changes in a name come on top.
UniProt Q14739: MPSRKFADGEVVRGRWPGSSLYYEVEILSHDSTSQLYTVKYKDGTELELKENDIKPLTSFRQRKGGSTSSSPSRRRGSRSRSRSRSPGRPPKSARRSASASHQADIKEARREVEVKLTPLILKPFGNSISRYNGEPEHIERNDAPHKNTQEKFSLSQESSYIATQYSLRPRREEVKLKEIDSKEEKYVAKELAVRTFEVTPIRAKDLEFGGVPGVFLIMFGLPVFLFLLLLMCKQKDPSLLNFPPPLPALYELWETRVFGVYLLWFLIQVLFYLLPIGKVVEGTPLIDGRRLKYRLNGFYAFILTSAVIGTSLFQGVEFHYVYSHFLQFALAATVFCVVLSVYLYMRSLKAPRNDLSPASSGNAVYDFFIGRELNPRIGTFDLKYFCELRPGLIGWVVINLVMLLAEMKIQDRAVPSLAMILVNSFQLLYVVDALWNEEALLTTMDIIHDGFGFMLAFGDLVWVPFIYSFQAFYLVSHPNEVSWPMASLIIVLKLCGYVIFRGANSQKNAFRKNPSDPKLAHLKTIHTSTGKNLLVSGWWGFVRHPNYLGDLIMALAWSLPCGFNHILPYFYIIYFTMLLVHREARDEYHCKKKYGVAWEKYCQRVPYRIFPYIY
UniProt Q9Y4Z0: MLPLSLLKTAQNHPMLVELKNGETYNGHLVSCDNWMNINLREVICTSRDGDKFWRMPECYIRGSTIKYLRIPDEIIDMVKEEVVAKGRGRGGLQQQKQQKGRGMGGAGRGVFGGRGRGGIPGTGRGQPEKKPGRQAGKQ
UniProt Q8IWT6: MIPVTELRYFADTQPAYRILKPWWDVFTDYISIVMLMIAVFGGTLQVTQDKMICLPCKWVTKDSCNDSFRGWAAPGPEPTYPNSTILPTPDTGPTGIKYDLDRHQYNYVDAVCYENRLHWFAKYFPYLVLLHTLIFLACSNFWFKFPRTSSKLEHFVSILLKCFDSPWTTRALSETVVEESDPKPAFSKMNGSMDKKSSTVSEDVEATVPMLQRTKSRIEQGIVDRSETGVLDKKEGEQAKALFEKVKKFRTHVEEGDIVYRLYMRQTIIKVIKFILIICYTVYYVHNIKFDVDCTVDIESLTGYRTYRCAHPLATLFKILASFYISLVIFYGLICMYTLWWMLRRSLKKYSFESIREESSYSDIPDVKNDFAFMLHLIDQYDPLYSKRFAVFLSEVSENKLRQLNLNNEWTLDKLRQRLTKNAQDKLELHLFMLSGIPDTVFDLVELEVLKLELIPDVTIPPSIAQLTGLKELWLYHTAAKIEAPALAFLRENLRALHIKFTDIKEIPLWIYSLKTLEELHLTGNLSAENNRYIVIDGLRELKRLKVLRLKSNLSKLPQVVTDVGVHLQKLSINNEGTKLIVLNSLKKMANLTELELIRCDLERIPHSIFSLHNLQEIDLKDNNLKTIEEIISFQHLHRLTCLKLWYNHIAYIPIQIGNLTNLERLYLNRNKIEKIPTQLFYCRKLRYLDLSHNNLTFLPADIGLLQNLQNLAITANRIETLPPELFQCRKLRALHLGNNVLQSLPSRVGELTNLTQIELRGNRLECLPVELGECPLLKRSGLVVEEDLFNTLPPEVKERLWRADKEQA
UniProt P48059, whole entry, looked up: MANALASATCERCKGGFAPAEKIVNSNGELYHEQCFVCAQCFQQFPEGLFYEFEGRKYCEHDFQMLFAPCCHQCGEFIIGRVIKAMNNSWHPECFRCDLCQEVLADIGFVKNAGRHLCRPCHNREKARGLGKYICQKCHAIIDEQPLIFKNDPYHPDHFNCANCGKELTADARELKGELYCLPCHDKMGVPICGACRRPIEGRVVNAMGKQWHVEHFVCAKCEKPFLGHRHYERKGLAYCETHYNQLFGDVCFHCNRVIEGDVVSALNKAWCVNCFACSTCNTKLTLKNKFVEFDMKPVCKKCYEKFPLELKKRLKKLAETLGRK
UniProt Q9NUN5: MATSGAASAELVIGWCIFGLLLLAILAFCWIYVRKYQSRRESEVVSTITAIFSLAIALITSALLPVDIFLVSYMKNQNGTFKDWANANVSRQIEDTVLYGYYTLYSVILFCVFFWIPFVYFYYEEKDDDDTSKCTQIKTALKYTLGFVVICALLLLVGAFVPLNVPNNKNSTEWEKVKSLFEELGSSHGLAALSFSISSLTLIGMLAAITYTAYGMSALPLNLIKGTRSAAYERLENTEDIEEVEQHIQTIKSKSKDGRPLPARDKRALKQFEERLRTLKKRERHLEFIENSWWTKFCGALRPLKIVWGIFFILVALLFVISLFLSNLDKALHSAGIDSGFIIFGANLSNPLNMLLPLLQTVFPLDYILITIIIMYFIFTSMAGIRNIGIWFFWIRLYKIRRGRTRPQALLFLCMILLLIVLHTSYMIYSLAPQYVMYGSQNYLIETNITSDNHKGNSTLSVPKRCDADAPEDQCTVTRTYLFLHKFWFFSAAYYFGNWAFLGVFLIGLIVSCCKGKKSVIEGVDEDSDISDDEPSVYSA
UniProt P30533, whole entry, looked up: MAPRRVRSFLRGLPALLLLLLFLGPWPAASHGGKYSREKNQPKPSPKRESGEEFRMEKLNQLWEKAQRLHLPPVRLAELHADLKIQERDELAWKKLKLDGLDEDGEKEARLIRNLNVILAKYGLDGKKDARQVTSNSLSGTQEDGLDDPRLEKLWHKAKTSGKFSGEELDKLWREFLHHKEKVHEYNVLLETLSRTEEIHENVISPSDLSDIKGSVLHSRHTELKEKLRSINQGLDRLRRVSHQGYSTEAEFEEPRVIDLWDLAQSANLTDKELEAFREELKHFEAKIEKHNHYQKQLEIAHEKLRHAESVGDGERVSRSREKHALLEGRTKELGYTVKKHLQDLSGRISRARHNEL
UniProt O60294: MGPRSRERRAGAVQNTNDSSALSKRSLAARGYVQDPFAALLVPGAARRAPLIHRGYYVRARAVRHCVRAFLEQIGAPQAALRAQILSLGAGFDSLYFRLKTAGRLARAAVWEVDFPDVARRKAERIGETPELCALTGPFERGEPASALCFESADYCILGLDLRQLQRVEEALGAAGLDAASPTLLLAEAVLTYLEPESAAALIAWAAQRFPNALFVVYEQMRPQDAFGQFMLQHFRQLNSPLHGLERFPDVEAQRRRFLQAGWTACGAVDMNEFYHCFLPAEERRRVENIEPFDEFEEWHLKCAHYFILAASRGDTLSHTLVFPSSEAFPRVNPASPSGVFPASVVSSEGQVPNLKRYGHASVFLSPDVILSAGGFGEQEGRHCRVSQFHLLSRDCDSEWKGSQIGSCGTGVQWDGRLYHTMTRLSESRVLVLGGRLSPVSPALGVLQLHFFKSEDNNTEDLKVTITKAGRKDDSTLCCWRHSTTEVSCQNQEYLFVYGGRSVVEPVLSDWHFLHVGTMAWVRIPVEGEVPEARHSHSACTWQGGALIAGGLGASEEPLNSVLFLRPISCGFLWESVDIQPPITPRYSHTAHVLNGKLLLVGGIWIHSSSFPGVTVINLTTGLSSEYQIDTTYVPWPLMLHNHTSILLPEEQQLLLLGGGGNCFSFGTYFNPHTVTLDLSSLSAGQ
UniProt Q13094: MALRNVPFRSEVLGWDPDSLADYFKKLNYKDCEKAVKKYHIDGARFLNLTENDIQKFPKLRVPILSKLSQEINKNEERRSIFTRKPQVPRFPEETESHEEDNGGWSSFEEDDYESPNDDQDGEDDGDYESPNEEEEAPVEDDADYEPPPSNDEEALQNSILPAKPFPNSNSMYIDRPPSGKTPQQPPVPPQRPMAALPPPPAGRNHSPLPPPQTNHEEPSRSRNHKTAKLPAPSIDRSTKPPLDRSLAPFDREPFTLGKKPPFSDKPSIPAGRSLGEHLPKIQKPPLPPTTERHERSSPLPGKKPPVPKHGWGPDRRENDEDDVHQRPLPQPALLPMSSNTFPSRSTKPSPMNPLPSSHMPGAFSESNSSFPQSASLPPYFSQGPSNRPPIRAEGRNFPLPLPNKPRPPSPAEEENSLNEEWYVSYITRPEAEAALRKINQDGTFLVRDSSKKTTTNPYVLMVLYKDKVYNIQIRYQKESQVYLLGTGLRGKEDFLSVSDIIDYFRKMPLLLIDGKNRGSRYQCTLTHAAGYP
UniProt Q9UIC8: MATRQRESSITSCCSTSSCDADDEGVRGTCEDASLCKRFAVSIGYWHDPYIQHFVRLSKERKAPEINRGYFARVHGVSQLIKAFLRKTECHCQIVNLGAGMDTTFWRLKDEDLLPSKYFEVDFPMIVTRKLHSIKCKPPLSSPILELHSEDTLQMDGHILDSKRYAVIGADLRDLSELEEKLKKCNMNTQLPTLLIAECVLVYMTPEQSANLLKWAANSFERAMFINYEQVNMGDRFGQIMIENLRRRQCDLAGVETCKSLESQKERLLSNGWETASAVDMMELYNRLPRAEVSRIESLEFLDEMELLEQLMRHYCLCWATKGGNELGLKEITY
UniProt O15116: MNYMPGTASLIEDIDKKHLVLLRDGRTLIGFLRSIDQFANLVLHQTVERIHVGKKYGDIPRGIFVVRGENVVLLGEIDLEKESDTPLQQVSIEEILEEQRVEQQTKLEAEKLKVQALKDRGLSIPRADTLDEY
UniProt P49917: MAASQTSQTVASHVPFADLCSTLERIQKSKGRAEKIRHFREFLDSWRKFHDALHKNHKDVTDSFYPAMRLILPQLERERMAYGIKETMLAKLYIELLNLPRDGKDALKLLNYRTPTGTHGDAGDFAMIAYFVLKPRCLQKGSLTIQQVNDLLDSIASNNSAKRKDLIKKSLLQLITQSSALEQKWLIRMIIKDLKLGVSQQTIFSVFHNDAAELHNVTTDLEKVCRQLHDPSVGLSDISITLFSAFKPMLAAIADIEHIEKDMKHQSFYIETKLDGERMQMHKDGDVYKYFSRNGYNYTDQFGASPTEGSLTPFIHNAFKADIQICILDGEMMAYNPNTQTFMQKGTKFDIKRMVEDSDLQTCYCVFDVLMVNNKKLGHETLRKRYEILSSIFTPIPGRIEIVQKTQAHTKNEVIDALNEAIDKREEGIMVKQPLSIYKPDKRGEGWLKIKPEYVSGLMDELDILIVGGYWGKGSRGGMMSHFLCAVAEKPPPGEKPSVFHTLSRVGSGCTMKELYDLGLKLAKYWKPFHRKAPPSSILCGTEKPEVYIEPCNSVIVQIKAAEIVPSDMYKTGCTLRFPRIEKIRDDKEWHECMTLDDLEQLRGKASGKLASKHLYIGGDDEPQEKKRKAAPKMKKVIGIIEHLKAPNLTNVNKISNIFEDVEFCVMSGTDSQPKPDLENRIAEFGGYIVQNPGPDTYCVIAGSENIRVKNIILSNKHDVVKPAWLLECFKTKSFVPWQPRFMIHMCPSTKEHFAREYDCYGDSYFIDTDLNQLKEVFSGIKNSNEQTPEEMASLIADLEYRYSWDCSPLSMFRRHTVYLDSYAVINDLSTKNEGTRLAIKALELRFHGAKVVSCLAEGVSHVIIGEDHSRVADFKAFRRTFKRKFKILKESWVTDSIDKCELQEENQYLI
UniProt P62312: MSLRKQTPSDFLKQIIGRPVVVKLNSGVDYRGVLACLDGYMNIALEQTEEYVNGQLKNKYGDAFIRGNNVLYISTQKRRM
UniProt P62310: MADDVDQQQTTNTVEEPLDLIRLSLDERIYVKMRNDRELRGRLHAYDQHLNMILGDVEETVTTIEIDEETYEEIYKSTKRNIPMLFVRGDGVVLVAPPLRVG
UniProt Q86U70: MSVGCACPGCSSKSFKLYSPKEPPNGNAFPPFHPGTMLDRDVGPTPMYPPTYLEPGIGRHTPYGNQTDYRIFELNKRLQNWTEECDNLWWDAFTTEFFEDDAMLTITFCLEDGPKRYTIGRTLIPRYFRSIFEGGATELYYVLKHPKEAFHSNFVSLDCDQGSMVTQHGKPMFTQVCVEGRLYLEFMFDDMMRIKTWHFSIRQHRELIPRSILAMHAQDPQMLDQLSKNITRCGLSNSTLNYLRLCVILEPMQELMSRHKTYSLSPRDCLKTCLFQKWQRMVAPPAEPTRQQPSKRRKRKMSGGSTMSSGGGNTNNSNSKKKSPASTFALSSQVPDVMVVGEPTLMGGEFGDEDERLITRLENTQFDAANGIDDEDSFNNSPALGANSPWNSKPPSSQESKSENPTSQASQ
UniProt Q03252: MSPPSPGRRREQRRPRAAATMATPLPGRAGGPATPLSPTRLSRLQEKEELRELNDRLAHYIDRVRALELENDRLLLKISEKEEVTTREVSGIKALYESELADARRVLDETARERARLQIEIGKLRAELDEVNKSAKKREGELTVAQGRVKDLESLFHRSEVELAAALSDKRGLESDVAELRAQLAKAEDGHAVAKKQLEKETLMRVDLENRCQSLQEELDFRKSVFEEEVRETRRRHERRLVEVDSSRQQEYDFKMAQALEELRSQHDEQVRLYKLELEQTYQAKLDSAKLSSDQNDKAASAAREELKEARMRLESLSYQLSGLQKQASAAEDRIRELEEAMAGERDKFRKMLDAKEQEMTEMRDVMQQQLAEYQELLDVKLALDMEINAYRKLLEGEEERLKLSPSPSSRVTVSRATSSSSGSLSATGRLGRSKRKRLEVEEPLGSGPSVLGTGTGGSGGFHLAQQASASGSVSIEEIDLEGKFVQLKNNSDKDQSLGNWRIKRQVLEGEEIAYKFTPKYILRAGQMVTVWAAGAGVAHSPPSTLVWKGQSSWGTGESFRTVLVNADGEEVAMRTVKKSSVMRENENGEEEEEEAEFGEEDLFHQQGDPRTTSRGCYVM

How the values were obtained:
Test in all cases: log2 fold change, soluble protein after heating vs DMSO (PISA); higher = thermal stabilisation; K562 lysate, 10 uM; active = over 0.2 and 3.5 SD of the protein, either way, in both replicates (recomputed)
[1] = compound: Cc1cn(-c2cc(NC(=O)c3ccc(C)c(Nc4nccc(-c5cccnc5)n4)c3)cc(C(F)(F)F)c2)cn1 [nilotinib]
In short: (§1)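 The values are log-two fold changes in thermal stability compared with solvent controls and come from duplicates. They were obtained by TMTpro 16plex LC-MS/MS, with channel sums equalised, on the supernatant after 21,000xg for 90 min. That supernatant came from crude K562 extract at 1 mg/mL protein treated with 10 μM compound for 30 min, heated for 3 min across 48°C-58°C, pooled and brought to 0.5% NP-40 at 4°C.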

[2] = compound: Cc1nc(Nc2n[nH]c3c2CN(C(=O)N[C@H](CN(C)C)c2ccccc2)C3(C)C)c2sccc2n1
In short: as §1

[3] = compound: Cc1nc(Nc2ncc(C(=O)Nc3c(C)cccc3Cl)s2)cc(N2CCN(CCO)CC2)n1 [dasatinib]
In short: as §1

[4] = compound: Cc1ncc(-c2ccnc(Nc3ccc(S(C)(=O)=O)cc3)n2)n1C(C)C
In short: as §1

[5] = compound: Cn1cc(-c2ccc3c(c2)CCN3C(=O)Cc2cccc(C(F)(F)F)c2)c2c(N)ncnc21
In short: as §1

[6] = compound: Cn1cc(CNCC2CCN(c3ncc(C(=O)NO)cn3)CC2)c2ccccc21 [quisinostat]
In short: as §1

[7] = compound: Cn1cncc1[C@@](N)(c1ccc(Cl)cc1)c1ccc2c(c1)c(-c1cccc(Cl)c1)cc(=O)n2C [tipifarnib]
In short: as §1

[8] = compound: NC(=O)Nc1cc(-c2cccc(F)c2)sc1C(=O)N[C@H]1CCCNC1
In short: as §1

[9] = compound: NC(=O)c1cnc(N[C@@H]2CCCC[C@@H]2N)nc1Nc1cccc(-n2nccn2)c1
In short: as §1

[10] = compound: NC1(c2ccc(-c3nc4ccn5c(=O)[nH]nc5c4cc3-c3ccccc3)cc2)CCC1
In short: as §1

Target | log2 fold change [1] | log2 fold change [2] | log2 fold change [3] | log2 fold change [4] | log2 fold change [5] | log2 fold change [6] | log2 fold change [7] | log2 fold change [8] | log2 fold change [9] | log2 fold change [10]
LINS1 (UniProt Q8NG48) | inactive: -0.008 | inactive: -0.064 | inactive: 0.059 | inactive: -0.101 | inactive: -0.138 | inactive: -0.076 | inactive: 0.087 | inactive: 0.038 | inactive: 0.009 | inactive: 0.054
LPCAT3 (UniProt Q6P1A2) | inactive: 0.013 | inactive: -0.005 | inactive: 0.074 | inactive: 0.113 | inactive: 0.043 | inactive: -0.048 | inactive: -0.022 | inactive: 0.184 | inactive: -0.028 | inactive: 0.012
LBR (UniProt Q14739) | inactive: -0.026 | inactive: 0.015 | inactive: -0.04 | inactive: -0.004 | inactive: 0.003 | inactive: 0.065 | inactive: -0.03 | inactive: -0.048 | inactive: 0.006 | inactive: 0.08
LSM4 (UniProt Q9Y4Z0) | inactive: 0.009 | inactive: -0.03 | inactive: 0.007 | inactive: 0 | inactive: 0.018 | inactive: 0 | inactive: -0.013 | inactive: -0.017 | inactive: -0.021 | inactive: -0.01
LRRC8A (UniProt Q8IWT6) | inactive: -0.01 | inactive: -0.039 | inactive: 0.07 | inactive: -0.058 | inactive: -0.021 | inactive: 0.047 | inactive: -0.022 | inactive: -0.032 | inactive: 0.001 | inactive: 0.004
LENG1 (UniProt Q96BZ8) | inactive: -0.03 | inactive: -0.19 | inactive: 0.03 | inactive: 0.063 | inactive: 0.018 | inactive: -0.069 | inactive: 0.01 | inactive: 0.003 | inactive: 0.048 | inactive: 0.005
LIMS1 isoform 3 (UniProt P48059) | inactive: 0.076 | inactive: 0.035 | inactive: 0.017 | inactive: 0.104 | inactive: 0.018 | active: 0.255 | inactive: 0.002 | inactive: -0.065 | inactive: -0.007 | inactive: 0.001
LMBRD1 (UniProt Q9NUN5) | inactive: 0 | inactive: -0.052 | inactive: -0.032 | inactive: -0.008 | inactive: 0.015 | inactive: 0.028 | inactive: -0.004 | inactive: 0.031 | inactive: 0.061 | inactive: -0.036
LRPAP1 (UniProt P30533) | inactive: -0.037 | inactive: 0.001 | inactive: 0.031 | inactive: 0.031 | inactive: 0.004 | inactive: 0.092 | inactive: 0.019 | inactive: 0.001 | inactive: 0.038 | inactive: 0.01
LCP1 (UniProt P13796) | inactive: 0.009 | inactive: 0.016 | inactive: 0.002 | inactive: 0.035 | inactive: -0.015 | inactive: -0.025 | inactive: 0.007 | inactive: -0.017 | inactive: 0.001 | inactive: -0.005
LCMT2 (UniProt O60294) | inactive: -0.015 | inactive: 0.007 | inactive: -0.22 | inactive: -0.056 | inactive: 0.138 | inactive: -0.009 | inactive: 0.118 | inactive: 0.151 | inactive: -0.004 | inactive: -0.149
LRRC41 (UniProt Q15345) | inactive: -0.01 | inactive: 0.14 | inactive: -0.005 | inactive: -0.103 | inactive: -0.103 | inactive: -0.034 | inactive: 0.105 | inactive: 0.196 | inactive: 0.075 | inactive: 0.024
LAS1L (UniProt Q9Y4W2) | inactive: -0.019 | inactive: 0.008 | inactive: 0.025 | inactive: 0.029 | inactive: -0.019 | inactive: -0.083 | inactive: -0.013 | inactive: 0.033 | inactive: 0.044 | inactive: -0.024
LGALS3BP (UniProt Q08380) | inactive: -0.056 | inactive: 0.06 | inactive: 0.339 | inactive: -0.043 | inactive: -0.128 | inactive: -0.007 | inactive: -0.123 | inactive: 0.111 | inactive: 0.125 | inactive: 0.137
LSM14A isoform 2 (UniProt Q8ND56) | inactive: 0.028 | inactive: 0.019 | inactive: -0.002 | inactive: -0.016 | inactive: -0.052 | inactive: -0.023 | inactive: -0.024 | inactive: -0.01 | inactive: -0.022 | inactive: 0.04
LCP2 (UniProt Q13094) | inactive: -0.002 | inactive: 0.038 | inactive: 0.02 | inactive: 0.021 | inactive: 0.004 | inactive: 0.017 | inactive: 0.007 | inactive: -0.02 | inactive: 0.004 | inactive: -0.014
LRBA (UniProt P50851) | inactive: -0.006 | inactive: 0.003 | inactive: -0.03 | inactive: 0.002 | inactive: 0.008 | inactive: -0.021 | inactive: 0.006 | inactive: 0.008 | inactive: 0.004 | inactive: -0.007
LRRCC1 (UniProt Q9C099) | inactive: -0.093 | inactive: 0.027 | inactive: 0.104 | inactive: 0.101 | inactive: -0.025 | inactive: -0.322 | inactive: -0.092 | inactive: 0.341 | inactive: -0.104 | inactive: -0.08
LCMT1 (UniProt Q9UIC8) | inactive: -0.015 | inactive: -0.006 | inactive: -0.002 | inactive: -0.023 | inactive: 0.051 | inactive: 0.037 | inactive: 0.014 | inactive: -0.009 | inactive: 0.016 | inactive: 0.001
LSM1 (UniProt O15116) | inactive: 0.038 | inactive: 0.028 | inactive: 0.047 | inactive: -0.017 | inactive: -0.064 | inactive: 0.135 | inactive: 0.095 | inactive: -0.034 | inactive: -0.033 | inactive: 0.019
LIG4 (UniProt P49917) | inactive: 0.02 | inactive: -0.072 | inactive: 0.018 | inactive: -0.008 | inactive: -0.026 | inactive: -0.085 | inactive: 0.038 | inactive: 0.066 | inactive: -0.045 | inactive: -0.005
LMTK2 (UniProt Q8IWU2) | inactive: 0.056 | inactive: 0.05 | inactive: -0.044 | inactive: 0.046 | inactive: 0.016 | inactive: -0.104 | inactive: -0.028 | inactive: 0.007 | inactive: -0.051 | inactive: 0.008
LSM6 (UniProt P62312) | inactive: 0.067 | inactive: 0.006 | inactive: 0.029 | inactive: -0.015 | inactive: -0.014 | inactive: 0.113 | inactive: 0.031 | inactive: -0.041 | inactive: -0.054 | inactive: 0.05
LRRC47 (UniProt Q8N1G4) | inactive: 0.001 | inactive: -0.019 | inactive: -0.002 | inactive: 0.015 | inactive: 0.003 | inactive: 0.075 | inactive: 0.025 | inactive: -0.014 | inactive: -0.01 | inactive: 0.003
LSM3 (UniProt P62310) | inactive: -0.022 | inactive: 0.023 | inactive: 0.041 | inactive: 0.001 | inactive: -0.049 | inactive: 0.003 | inactive: -0.032 | inactive: -0.019 | inactive: 0.031 | inactive: -0.035
LRRFIP2 (UniProt Q9Y608) | inactive: -0.004 | inactive: 0.017 | inactive: 0.033 | inactive: -0.029 | inactive: 0.025 | inactive: 0.11 | inactive: -0.012 | inactive: -0.074 | inactive: 0.024 | inactive: -0.014
LRSAM1 (UniProt Q6UWE0) | inactive: 0.026 | inactive: -0.01 | inactive: 0.02 | inactive: -0.006 | inactive: 0.002 | inactive: -0.013 | inactive: 0 | inactive: 0.011 | inactive: 0.042 | inactive: -0.009
LIAS (UniProt O43766) | inactive: 0 | inactive: -0.009 | inactive: -0.033 | inactive: 0.041 | inactive: 0.025 | inactive: 0.016 | inactive: -0.011 | inactive: 0.002 | inactive: -0.029 | inactive: -0.047
LDB1 (UniProt Q86U70) | inactive: 0.047 | inactive: 0.04 | inactive: 0.006 | inactive: -0.04 | inactive: 0.001 | inactive: 0.043 | inactive: -0.006 | inactive: 0.022 | inactive: -0.039 | inactive: 0.02
LMNB2 (UniProt Q03252) | inactive: -0.03 | inactive: 0.015 | inactive: -0.003 | inactive: -0.02 | inactive: 0.073 | inactive: -0.001 | inactive: -0.068 | inactive: -0.005 | inactive: 0.02 | inactive: 0.015

Full records from above. Values in the order: log2 fold change [1] | log2 fold change [2] | log2 fold change [3] | log2 fold change [4] | log2 fold change [5] | log2 fold change [6] | log2 fold change [7] | log2 fold change [8] | log2 fold change [9] | log2 fold change [10]
LSM14A isoform 2 (UniProt Q8ND56) reads inactive: 0.028 | inactive: 0.019 | inactive: -0.002 | inactive: -0.016 | inactive: -0.052 | inactive: -0.023 | inactive: -0.024 | inactive: -0.01 | inactive: -0.022 | inactive: 0.04
LBR (UniProt Q14739) reads inactive: -0.026 | inactive: 0.015 | inactive: -0.04 | inactive: -0.004 | inactive: 0.003 | inactive: 0.065 | inactive: -0.03 | inactive: -0.048 | inactive: 0.006 | inactive: 0.08
